These are yes or no findings as the source states them, for the method shown. Some binding calls cover weakened binding; strength is not graded here.
B1: FLL125 (VHH)
VHH: QVQLQESGGGLVQAGGSLRLSCAASGSTFSRNYIDWYRQAPGKQREWVAQITSGGNTHYEPSLKGRFTISRDNAKNTAYLQMNSLKPEDTAVYYCRILDYWGQGTQVTVSS
B2: FLL86 (VHH)
VHH: QVQLQESGGGLVQPGDPLRLSCAASGSTFSRNYIDWYRQAPGKQREWVAQITSGGNTHYEPSLKGRFTISRDNAKNTAYLQMNSLKPEDTAVYYCRILDYWGQGTQVTVSS
B3: FLL21 (VHH)
VHH: QVQLQESGGGLVQPGGSLTLSCAASGSTFSRNYIDWYRQAPGKQREWVAQITSGGNTHYEPSLKGRFTISRDNAKNTAYLQMNSLKPEDTAVYYCRILDYWGQGTQVTVSS
B4: FLL62 (VHH)
VHH: QVQLQESGGGLVQAGGSLRLSCAASGSTSSRNYIDWYRQAPGKQREWVAQITSGGNTHYEPSLKGRFTISRDNAKNTAYLQMNSLKPEDTAVYYCRILDYWGQGTQVTVSS
B5: FLL57 (VHH)
VHH: QVQLQESGGGLVQAGGSLRLSCAASGSTFSKNYIDWYRQAPGKQREWVAQITSGGNTHYEPSLKGRFTISRDNAKNTAYLQMNSLKPEDTAVYYCRILDYWGQGTQVTVSS
B6: FLL79 (VHH)
VHH: QVQLQESGGGLVQAGGSLRLSCSASGSTFSRNYIDWYRQAPGKQREWVAQITSGGNTHYEPSLKGRFTISRDNAKNTAYLQMNSLKPEDTAVYYCRILDYWGQGTQVTVSS
B7: FLL55 (VHH)
VHH: QVQLQESGGGLVQAGGSLRLSCAASGSTFSRNYIDWYRQAPGKQREWVAQITSAGNTHYEPSLKGRFTISRDNAKNTAYLQMNSLKPEDTAVYYCRILDYWGQGTQVTVSS
B8: FLL158 (VHH)
VHH: QVQLQESGGGLVQPGGSLRLSCAASGSTFGRNYIDWYRQAPGKQREWVAQITSGGNTHYEPSLKGRFTISRDNAKNTAYLQMNSLKPEDTAVYYCRILDYWGQGTQVTVSS
B9: FLL83 (VHH)
VHH: QVQLQESGGGLVQAGGSLRLSCAVSGRTFSGFGTGWFRQAPGKEREFVAAISWSGGTTHYADSVKGRFTISRDNAENTVYLEMNSLKPEDTAVYICAGQVSRAYDSNWYSRDDYWGQGTQVTVSS
B10: FLL51 (VHH)
VHH: QVQLQESGGGLVQPGGSLRLSCAASGFDFSISYIDWYRQAPGNEREWVAQITRGGDSFYADSVKGRFAISRDNAKNTVYLQMNSLKPEDTAVYYCRILSYWGQGTQVTVSS
B11: FLL101 (VHH)
VHH: QVQLQESGGGLVQAGGSLRLSCAASGVTFSINYIDWYRQAPGKQREWVAQITRDSNSFYADSVKGRFAISRDNAKNTVYLQMNNLKPEDTAVYYCRVLSYWGQGTQVTVSS
B12: FLL129 (VHH)
VHH: QVQLQESGGGLVQAGGSLRLSCAASGVTFSASYIDWYRQAPGNEREWVAQITRGGDSFYADSVKGRFAISRDNAKNTVYLQMNSLKPEDTAVYYCRVLSYWGQGTQVTVSS
B13: FLL179 (VHH)
VHH: QVQLQESGGGLVQAGGSLRLSCKASGVTFSINYIDWYRQAPGKQREWVAQITRDGSSFYADSVKGRFAISRDNAKNTVYLQMNSLKPEDTAVYYCRILSDWGQGTQVTVSS
B14: FLL14 (VHH)
VHH: QVQLQESGGGLVQAGGSLRLSCAASGVTFSINYIDWYRQAPGKQREWVAQITRDSNSFYADSVKGRFAISRDNAKNTVYLQMNSLKPEDTAVYYCRLLSYWGQGTQVTVSS
B15: FLL77 (VHH)
VHH: QVQLQESGGGLVQPGGSLRLSCAASGVTFSISYIDWYRQAPGNEREWVAQITRGGDSFYADSVKGRFAISRDNAKNTVYLQMNSLKPEDTAVYYCRILSYWGQGTQVTVSS
B16: FLL116 (VHH)
VHH: QVQLQESGGGLVQAGGSLRLSCAASGVTFSINYIDWYRQAPGKQREWVAQITRDSNSFYADSVKGRFAISRDNAKNTVYLQMNSLKPEDTAVYYCRVLSYWGQGTQVTVSS
B17: FLL137 (VHH)
VHH: QVQLQESGGGLVQAGGSLRLSCAASGSTFNNYAMDWFRQAPGKQREWVAQITRDSSSFYADSVKGRFAISRDNAKNTVYLQMNSLKPEDTAVYYCRVLSYWGQGTQVTVSS
B18: FLL146 (VHH)
VHH: QVQLQESGGGLVQAGGSLRLSCAASGVTFSINYIDWYRQAPGKQREWVAQITRDDTSFYADSVKGRFAISRDNAKNTVYLQMNNLRPEDTAVYYCRLLSFWGQGTQVTVSS
B19: FLL32 (VHH)
VHH: QVQLQESGGGLVQAGGSLRLSCQASGVTFNINYIDWYRQAPGRQREWVAQITRDSTRFYADSVKGRFAISRDNAKNMVYLQLNSLKPEDTAVYYCRILSYWGQGTQVTVSS
B20: FLL181 (VHH)
VHH: QVQLQESGGGLVQAGDSLRLSCAASGVTFSASYIDWYRQAPGNEREWVAQITRGGDSFYADSVKGRFAISRDNAKNTVYLQMNSLKPEDTAVYYCRVLSYWGQGTQVTVSS
B21: FLL187 (VHH)
VHH: QVQLQESGGGLVQPGGSLRLSCAASGVTFSINYIDWYRQAPGKQREWVAQITRDSNSFYADSVKGRFAISRENAKNTVYLQMNSLKPEDTAVYYCRVLSYWGQGTQVTVSS
B22: FLL97 (VHH)
VHH: QVQLQESGGGLVQAGGSLRLSCAASGVTFSINYIDWYRQAPGKQREWVAQITRDSNSFYADSVKGRFAVSRDNAKNTVYLQMNSLKPEDTAVYYCRVLSYWGQGTQVTVSS
B23: FLL103 (VHH)
VHH: QVQLQESGGGLVQAGGSLRLSCEASGPTFSINYIDWYRQAPGKQREWVAQITRDSNSFYADSVKGRFAVSRDNAKNTVYLQMNSLKPEDTAVYYCRVLSYWGQGTQVTVSS
B24: FLL75 (VHH)
VHH: QVQLQESGGGLVQAGGSLRLSCAVSGRTFSGFGTGWFRQAPGKEREFVAAISWSGGTTHYADSVKGRFTISRDNAKNTVNLVYLQMNDLRPEDTAVYYCAGQVARAYDSNWYSRGDYWGQGTQVTVSS
B25: FLL112 (VHH)
VHH: QVQLQESGGGLVQAGGSLRLSCAVSGRTFSGFGTGWFRQAPGKEREFVAAISWAGGRTHYEDSVKGRFTIHRDNAKNTVYLQMNSLKPEDTAVYYCAAQVSRAYDGIWYSGGDYWGQGTQVTVSS
B26: FLL6 (VHH)
VHH: QVQLQESGGGLVQAGGSLRLSCAVSGRTFSGFGTGWFRQAPGKEREFVAAISWDGGRTHYADSVKGRFTISRDNAANTVYLQMNSLKPEDTAVYYCAGQVSRAYDSMWYGRDDYWGQGTQVTVSS
B27: FLL142 (VHH)
VHH: QVQLQESGGGLVQAGGSLRLSCAVSGRTFSGFGTGWFRQAPGKEREFVAAISWDGGRTHYADFVKGRFTISRDNAKNTVYLQMNSLKPEDTAVYYCAAQVARAYDSKWYSGGDYWGQGTQVTVSS
B28: FLL170 (VHH)
VHH: QVQLQESGGGLVQAGGSLRLSCAVSGRTFSGFGTGWFRQAPGKEREFVAAISWSGGTTHYADSVKGRFTISRDNAKNTVYLQMNSLKPEDTAVYYCAGQVARAYDSSWYSRGDYWGQGTQVTVSS
B29: FLL154 (VHH)
VHH: QVQLQESGGGLVQAGGSLRLSCAVSGRTFSGFGTGWFRQAPGKEREFVAAISWSGGRTHYADSVKGRFTISRDNAKNTVYLQMNSLKPEDTAVYYCAGQVARAYDGNWYSRGDYWGQGTQVTVSS
B30: FLL143 (VHH)
VHH: QVQLQESGGGLVQAGGSLRLSCAVSGRTFSGFGTGWFRQAPGKEREFVAAISWVGGRTHYADSVKGRFTISRDNAKNTVYLQMNSLKPEDTAVYYCAAQVARAYDGNWYSGGDYWGQGTQVTVSS
B31: FLL94 (VHH)
VHH: QVQLQESGGGLVQAGGSLRLSCAVSGRTFSGFGTGWFRQAPEKEREFVAAISWDGGRTHYADSVKGRFTISRDNAKNTVYLQMNSLKPEDTAIYYCAGQVARAYDTRWYSRGDYWGQGTQVTVSS
B32: FLL188 (VHH)
VHH: QVQLQESGGGLVQAGGSLGLSCAVSGRTFSGFGTGWFRQPPEKEREFVAAISWDGGRTHYADSVKGRFTISRDNAKNTVFLQMNSLKPEDTAVYYCAAQVARAYDSRWYSGGDYWGQGTQVTVSS
B33: FLL168 (VHH)
VHH: QVQLQESGGGSVQAGGSLRLSCAFSGRTFSGFGTGWFRQAPEKEREFVAAISWDGGRTHYADSVKGRFTISRDNAKNTVYLQMDSLKPEDTAIYYCAAQVSRAYDGRWYSAVDYWGRGTQVTVSS

By UniProt entry, the sequences of proteins in these tests, tags left out. Where a name states a change or a piece, a line headed by the entry shows the natural chain unless it says otherwise.
UniProt P36888: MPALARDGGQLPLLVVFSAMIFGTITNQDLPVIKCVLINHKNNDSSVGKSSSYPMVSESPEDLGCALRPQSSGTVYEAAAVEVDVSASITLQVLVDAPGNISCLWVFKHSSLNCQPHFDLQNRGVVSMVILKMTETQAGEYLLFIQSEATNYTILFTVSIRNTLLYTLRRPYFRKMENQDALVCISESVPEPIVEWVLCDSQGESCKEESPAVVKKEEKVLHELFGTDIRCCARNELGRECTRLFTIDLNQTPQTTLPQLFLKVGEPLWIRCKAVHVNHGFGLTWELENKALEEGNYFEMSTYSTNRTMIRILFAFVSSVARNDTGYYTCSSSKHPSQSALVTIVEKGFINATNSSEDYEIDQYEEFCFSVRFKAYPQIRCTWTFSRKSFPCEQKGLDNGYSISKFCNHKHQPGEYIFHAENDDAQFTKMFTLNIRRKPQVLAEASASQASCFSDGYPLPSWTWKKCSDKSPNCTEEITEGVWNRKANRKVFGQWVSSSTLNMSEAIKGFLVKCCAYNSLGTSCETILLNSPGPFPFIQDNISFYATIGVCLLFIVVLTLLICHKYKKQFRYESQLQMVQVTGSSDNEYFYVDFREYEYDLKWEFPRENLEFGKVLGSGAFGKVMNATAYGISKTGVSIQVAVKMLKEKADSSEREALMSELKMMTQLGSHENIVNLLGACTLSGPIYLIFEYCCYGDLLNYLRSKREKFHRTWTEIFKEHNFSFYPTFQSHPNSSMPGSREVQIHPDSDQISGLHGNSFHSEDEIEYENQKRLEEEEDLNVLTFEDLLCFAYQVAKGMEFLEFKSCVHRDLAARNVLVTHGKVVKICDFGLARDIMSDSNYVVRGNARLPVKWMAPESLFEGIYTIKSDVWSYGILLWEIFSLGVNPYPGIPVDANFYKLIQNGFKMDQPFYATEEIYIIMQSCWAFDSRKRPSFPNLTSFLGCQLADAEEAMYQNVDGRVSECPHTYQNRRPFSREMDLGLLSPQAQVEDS

Target: human FLT3 protein (human) (UniProt P36888)
Assay: colorimetric ELISA, periplasmic extract

binding, binds:
B1
B2
B3
B4
B5
B6
B7
B8
B9
B10
B11
B12
B13
B14
B15
B16
B17
B18
B19
B20
B21
B22
B23
B24
B25
B26
B27
B28
B29
B30
B31
B32
B33

From patent US20210261671A1
